Results deposited as PubChem BioAssay AID504764 (Drosophila RNAi Screening Center, 2011).
The screen tested about 22,000 reagents; shown is a random part of those with a known target gene and a result. In the full data, 403 (1.9%) got an active call. 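Unnormalised raw counts per well; ratio z-scores behind the hit calls and whether each hit raises or lowers signal are not deposited.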 A plus sign joins genes that one reagent is predicted to hit. Not given: the amount of reagent.

Aim: 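Genome-wide screen for regulators of Notch-driven gene expression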 (primary screen)
Cell system: Drosophila Kc167 cells
Knock-down reagent: long dsRNA against Drosophila genes
Duration: about 5 days (4 days dsRNA, then 24 h after transfection)
Conditions: transfection of constitutively active membrane-tethered Notch lacking the extracellular domain, read 24 h later
Read-out: 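Light from a Notch-responsive E(spl)m3 luciferase reporter under active Notch, with control-promoter and no-Notch reporter wells to normalise; raw counts from paired wells a and b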
Reading the numbers: induced reporter light, run 1, well a and induced reporter light, run 1, well b: higher = more light from the Notch target reporter with active Notch; control promoter light, run 1, well a and control promoter light, run 1, well b: higher = more light from the viral control promoter (cell number, transfection, viability); uninduced reporter light, run 1, well a: higher = more light from the Notch target reporter without active Notch
Hit rule: 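Hit if the duplicate-averaged log2 ratio of induced to control-promoter light gives a plate-wise z beyond ±2, or induced to uninduced beyond ±1.8; weak-control or discordant-duplicate wells dropped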
Calls: active = modifier hit (raised or lowered Notch signal); inactive = not a hit

no.	target gene	dsRNA	induced reporter light, run 1, well a	induced reporter light, run 1, well b	control promoter light, run 1, well a	control promoter light, run 1, well b	uninduced reporter light, run 1, well a	activity call
1	CG13544	DRSC04186	2.25e5	1.95e5	1.57e5	1.27e5	13160	active
2	CG10333	DRSC02036	1.67e5	1.69e5	1.07e5	1.14e5	7115	active
3	Nt5a (5' nucleotidase A)	DRSC08561	1.24e5	1.17e5	2.10e5	2.33e5	8630	inactive
4	CG30394	DRSC04074	50405	39910	40625	33695	3210	inactive
5	CG30394	DRSC04260	64535	40330	47320	35980	3135	inactive
6	KCNQ (KCNQ potassium channel)	DRSC06121	1.31e5	1.20e5	1.21e5	1.25e5	15350	inactive
7	KCNQ (KCNQ potassium channel)	DRSC06230	1.51e5	1.26e5	1.99e5	1.63e5	13960	inactive
8	CG32855	DRSC13131	1.04e5	1.48e5	1.47e5	1.38e5	10455	inactive
9	CG6136	DRSC15975	1.51e5	1.38e5	1.33e5	1.35e5	11465	inactive
10	CG6674	DRSC10692	2.00e5	1.57e5	1.50e5	86065	16495	inactive
11	Acp95EF (Accessory gland protein 95EF)	DRSC14102	2.08e5	2.25e5	2.39e5	2.65e5	18355	inactive
12	CG16721	DRSC18113	1.91e5	1.59e5	2.42e5	2.08e5	14978	inactive
13	Capa (Capability)	DRSC15058	1.76e5	1.93e5	2.29e5	2.68e5	14895	inactive
14	CG15740	DRSC19706	9275	8200	19415	17885	3565	inactive
15	Cyp4g15 (Cytochrome P450 4g15)	DRSC20240	1.24e5	1.27e5	2.47e5	2.72e5	8305	inactive
16	CG7800	DRSC16315	57050	80895	81570	54575	6210	inactive
17	CG11231 (retired record)	DRSC17207	1.24e5	1.21e5	1.75e5	1.74e5	9065	inactive
18	CG10357	DRSC08155	1.17e5	93705	1.47e5	1.65e5	5935	inactive
19	Cenp-C (Centromeric protein-C)	DRSC14371	90620	1.04e5	70840	62060	5650	inactive

4 of these entries, set out differently:
target gene	dsRNA	induced reporter light, run 1, well a	induced reporter light, run 1, well b	control promoter light, run 1, well a	control promoter light, run 1, well b	uninduced reporter light, run 1, well a	activity call
Acp95EF (Accessory gland protein 95EF)	DRSC14102	2.08e5	2.25e5	2.39e5	2.65e5	18355	inactive
CG16721	DRSC18113	1.91e5	1.59e5	2.42e5	2.08e5	14978	inactive
Capa (Capability)	DRSC15058	1.76e5	1.93e5	2.29e5	2.68e5	14895	inactive
CG15740	DRSC19706	9275	8200	19415	17885	3565	inactive

Continued:
no.	target gene	dsRNA	induced reporter light, run 1, well a	induced reporter light, run 1, well b	control promoter light, run 1, well a	control promoter light, run 1, well b	uninduced reporter light, run 1, well a	activity call
20	CG31278	DRSC16051	67800	85230	72250	59750	3860	inactive
21	CG31949	DRSC00110	90040	81335	1.09e5	1.26e5	7175	inactive
22	Aatf (Apoptosis antagonizing transcription factor)	DRSC02131	1.27e5	92155	1.32e5	1.14e5	7115	inactive
23	Dlip1 (Dorsal interacting protein 1)	DRSC18460	63915	61975	78365	80400	4655	inactive
24	CG42449	DRSC18084	1.13e5	1.39e5	2.44e5	2.69e5	9205	inactive
25	CG2577	DRSC19863	66190	65845	97490	1.22e5	5265	inactive
26	CG32988	DRSC02692	1.29e5	1.35e5	99475	1.13e5	22082	inactive
27	Obp50e (Odorant-binding protein 50e)	DRSC06434	76195	97055	1.02e5	99485	7588	inactive
28	Brf (Brf RNA polymerase III subunit)	DRSC13228	1.13e5	98090	1.19e5	99025	10750	inactive
29	Brf (Brf RNA polymerase III subunit)	DRSC14166	1.90e5	2.11e5	1.95e5	1.83e5	20160	inactive
30	Brf (Brf RNA polymerase III subunit)	DRSC14167	2.20e5	1.60e5	1.60e5	1.56e5	18335	inactive
31	Pgant35A (Polypeptide N-acetylgalactosaminyltransferase 35A)	DRSC03557	1.59e5	1.73e5	1.42e5	1.54e5	15255	inactive
32	Nop56	DRSC14699	46500	47140	79000	62640	3625	inactive
33	IP3K1 (Inositol 1,4,5-triphosphate kinase 1)	DRSC02734	2.29e5	2.56e5	2.07e5	2.05e5	19220	inactive
34	Hsl (Hormone-sensitive lipase)	DRSC06028	57600	58055	90125	93520	3745	inactive
35	spag4 (sperm-associated antigen 4)	DRSC02973	1.49e5	1.92e5	73360	1.00e5	20890	inactive
36	Coq6 (Coenzyme Q6)	DRSC03040	1.66e5	1.45e5	1.31e5	1.33e5	15025	inactive
37	CG11790	DRSC14390	915	1538	1975	2350	90	active
38	CG14711 + Zaf1	DRSC14934	40200	51635	74505	41835	2995	inactive
39	CR33319 (pseudo)	DRSC01826	97115	92370	93555	1.28e5	10315	inactive
40	CG7130	DRSC11797	1.25e5	1.02e5	1.06e5	95480	7455	inactive
41	ms(2)34Fe (male sterile (2) 34Fe)	DRSC01905	1.36e5	1.63e5	1.44e5	1.71e5	12375	inactive
42	ND-19 (NADH dehydrogenase (ubiquinone) 19 kDa subunit)	DRSC04404	1.69e5	1.54e5	1.42e5	1.44e5	10980	inactive
43	Top2 (Topoisomerase 2)	DRSC03459	14975	15130	19415	13010	1890	inactive
44	CG16984	DRSC08500	1.61e5	93695	1.65e5	1.57e5	7585	inactive
45	CG16800	DRSC02518	1.31e5	1.52e5	1.48e5	1.59e5	10985	inactive
46	SMSr (Sphingomyelin synthase related)	DRSC10998	1.29e5	1.12e5	73560	40360	9690	inactive
47	SMSr (Sphingomyelin synthase related)	DRSC10999	1.65e5	1.91e5	1.77e5	1.50e5	5540	inactive
48	DCTN4-p62 (Dynactin 4, p62 subunit)	DRSC06101	2.13e5	1.94e5	2.53e5	2.04e5	18870	inactive
49	Gli (Gliotactin)	DRSC03332	1.18e5	1.27e5	1.41e5	1.46e5	9405	inactive
50	Gs1l (GS1-like)	DRSC00754	1.89e5	2.11e5	1.94e5	1.79e5	11500	inactive
